For 2 molecules, binding results are on record in paper PMC6624252.

Test [1] has as its target CtRea1-MIDAS∆loop (Chaetomium thermophilum). Put plainly: crystal structure; complexes reconstituted from purified components (with 5 mM MgCl2), sitting-drop vapor diffusion at 18 °C; Mg2+ coordinated by MIDAS and UBL; both purified.
The target in test [2] is ScRea1-MIDAS ∆loop (GAL4-BD fusion) (S. cerevisiae). The test is described as follows: two-hybrid; Rea1-MIDAS constructs fused to GAL4-BD (bait), Rsa4 fused to GAL4-AD (prey); strain PJ69-4A; growth on SDC-Leu-Trp-His (HIS3 reporter), 3 days at 30 °C.
Test [3] addresses ScRea1-MIDAS ∆loop with the PY-NLS of Hrp1 (two-hybrid construct) (S. cerevisiae). The test is described as above.
Test [4] concerns the target ScRea1-MIDAS ∆loop with the PY-NLS of L4 (two-hybrid construct) (S. cerevisiae). The description is as above.
The target in test [5] is ScRea1-MIDAS ∆loop with the PY-NLS of Syo1 (two-hybrid construct) (S. cerevisiae). Described as above.

No constants are given. Whether binding was seen depends on the method and setting. Binding can be weak; no strength is given. For some assays here: Sequences can lack the tags named with a protein.

B1: CtYtm1-Ubl_8–98 (domain or fragment, UniProt G0SFB5 8-98)
chain: APAPVAQVKVIFTTTEPDLELPESKRQLLVPADIRRYGLSRILNSESMLDTGSIPFDFLINGSFLRSSLEDYLTSNGLSLETTLTLQYVRS
As for B1, the binding entry in test [1] is listed as “binds”.

B2: full-length Rsa4 from S. cerevisiae (GAL4-AD fusion) (protein, UniProt P25382 1-515)
chain: MSTLIPPPSKKQKKEAQLPREVAIIPKDLPNVSIKFQALDTGDNVGGALRVPGAISEKQLEELLNQLNGTSDDPVPYTFSCTIQGKKASDPVKTIDITDNLYSSLIKPGYNSTEDQITLLYTPRAVFKVKPVTRSSSAIAGHGSTILCSAFAPHTSSRMVTGAGDNTARIWDCDTQTPMHTLKGHYNWVLCVSWSPDGEVIATGSMDNTIRLWDPKSGQCLGDALRGHSKWITSLSWEPIHLVKPGSKPRLASSSKDGTIKIWDTVSRVCQYTMSGHTNSVSCVKWGGQGLLYSGSHDRTVRVWDINSQGRCINILKSHAHWVNHLSLSTDYALRIGAFDHTGKKPSTPEEAQKKALENYEKICKKNGNSEEMMVTASDDYTMFLWNPLKSTKPIARMTGHQKLVNHVAFSPDGRYIVSASFDNSIKLWDGRDGKFISTFRGHVASVYQVAWSSDCRLLVSCSKDTTLKVWDVRTRKLSVDLPGHKDEVYTVDWSVDGKRVCSGGKDKMVRLWTH
As to B2, the binding result in test [2], in test [3], in test [4] and in test [5] was “binds” in each case.
